Results are given in words; binding and its absence hold for the method and conditions named. Binding seen in cells or lysates may run through a third protein. Some results given as binding are weak or reduced against the parent protein; the word gives no strength. Tags and fused reporters may be left off the sequences shown.

Experiment [1] concerns the target T1, Kremen1 (Krm1), full length, Flag-tagged or HA-tagged (UniProt Q99N43).
T1 sequence: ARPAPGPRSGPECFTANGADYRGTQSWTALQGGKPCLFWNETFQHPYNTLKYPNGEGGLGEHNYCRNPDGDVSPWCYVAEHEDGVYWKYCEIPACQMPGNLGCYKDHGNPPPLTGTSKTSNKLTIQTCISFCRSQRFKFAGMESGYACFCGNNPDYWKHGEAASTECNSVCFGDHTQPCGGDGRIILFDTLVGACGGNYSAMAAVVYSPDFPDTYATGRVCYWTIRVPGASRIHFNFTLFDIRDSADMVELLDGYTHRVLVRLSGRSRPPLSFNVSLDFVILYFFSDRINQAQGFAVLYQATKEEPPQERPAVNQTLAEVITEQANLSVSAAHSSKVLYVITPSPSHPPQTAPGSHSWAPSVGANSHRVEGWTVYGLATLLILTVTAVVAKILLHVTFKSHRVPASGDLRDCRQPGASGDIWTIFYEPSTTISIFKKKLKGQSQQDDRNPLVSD
The experiment is described as follows: co-IP; competition: HEK293T cells transfected with Flag-Krm1, HA-Krm1 and either GFP or Dkk1; anti-Flag immunoprecipitation, anti-HA western blot. In general terms: A western blot detects proteins with antibodies after separation by electrophoresis.

Experiment [2] deals with T1, Kremen1 (Krm1), full length, Flag-tagged or HA-tagged. The experiment is described as follows: co-IP; HEK293T cells co-transfected, lysed after 24 h in 25 mM Tris pH7.4, 150 mM NaCl, 5 mM EDTA, 1% Triton-X100, 10% Glycerol; anti-Flag immunoprecipitation (Dynabeads proteinG), anti-HA western blot.
Experiment [3] has the same target. The experiment is described as follows: co-IP; competition: HEK293T cells transfected with Flag-Krm1, HA-Krm1 and either GFP, LRP6, Krm2 or EpCAM; anti-Flag immunoprecipitation, anti-HA western blot.

B1: Dickkopf1 (Dkk1) (ligand, UniProt O54908 32-272)
chain: TLNSVLINSNAIKNLPPPLGGAGGQPGSAVSVAPGVLYEGGNKYQTLDNYQPYPCAEDEECGSDEYCSSPSRGAAGVGGVQICLACRKRRKRCMRHAMCCPGNYCKNGICMPSDHSHFPRGEIEESIIENLGNDHNAAAGDGYPRRTTLTSKIYHTKGQEGSVCLRSSDCAAGLCCARHFWSKICKPVLKEGQVCTKHKRKGSHGLEIFQRCYCGEGLACRIQKDHHQASNSSRLHTCQRH
Turning to B1, in experiment [1], the binding result is recorded as “binds”.

B2: HA-Krm2secECD, secreted ectodomain of Krm2 (lacks the transmembrane and intracellular domains) (domain or fragment, UniProt Q8K1S7 25-363)
chain: GSLHSPGLSECFQVNGADYRGHQNYTGPRGAGRPCLFWDQTQQHSYSSASDPQGRWGLGAHNFCRNPDGDVQPWCYVAETEEGIYWRYCDIPTCHMPGYLGCFVDSGAPPALSGPSGTSTKLTVQVCLRFCRMKGYQLAGVEAGYACFCGSESDLARGRPAPATDCDQICFGHPGQLCGGDGRLGIYEVSVGSCQGNWSAPQGVIYSPDFPDEYGPDRNCSWVLGQLGAVLELTFRLFELADSRDRLELRDVSSGNLLRAFDGAHPPPPGPLRLRTAALLLTFRSDARGHAQGFALTYRGLQDTVEGRASPEDSTESLAGDPDGANASCSPKPGAAQAS
Turning to B2, the binding result in experiment [2] is recorded as “binds”.

B3: HA-Krm1secECD, secreted ectodomain of Krm1 (lacks the transmembrane and intracellular domains) (domain or fragment, UniProt Q99N43 21-392, looked up)
chain: RPAPGPRSGPECFTANGADYRGTQSWTALQGGKPCLFWNETFQHPYNTLKYPNGEGGLGEHNYCRNPDGDVSPWCYVAEHEDGVYWKYCEIPACQMPGNLGCYKDHGNPPPLTGTSKTSNKLTIQTCISFCRSQRFKFAGMESGYACFCGNNPDYWKHGEAASTECNSVCFGDHTQPCGGDGRIILFDTLVGACGGNYSAMAAVVYSPDFPDTYATGRVCYWTIRVPGASRIHFNFTLFDIRDSADMVELLDGYTHRVLVRLSGRSRPPLSFNVSLDFVILYFFSDRINQAQGFAVLYQATKEEPPQERPAVNQTLAEVITEQANLSVSAAHSSKVLYVITPSPSHPPQTAPGSHSWAPSVGANSHRVEGWT
Take B3: the binding entry in experiment [2] is reported as “binds”.

B4: HA-Krm2, full-length Kremen2 (receptor, UniProt Q8K1S7 25-461)
chain: GSLHSPGLSECFQVNGADYRGHQNYTGPRGAGRPCLFWDQTQQHSYSSASDPQGRWGLGAHNFCRNPDGDVQPWCYVAETEEGIYWRYCDIPTCHMPGYLGCFVDSGAPPALSGPSGTSTKLTVQVCLRFCRMKGYQLAGVEAGYACFCGSESDLARGRPAPATDCDQICFGHPGQLCGGDGRLGIYEVSVGSCQGNWSAPQGVIYSPDFPDEYGPDRNCSWVLGQLGAVLELTFRLFELADSRDRLELRDVSSGNLLRAFDGAHPPPPGPLRLRTAALLLTFRSDARGHAQGFALTYRGLQDTVEGRASPEDSTESLAGDPDGANASCSPKPGAAQASIGARVFSTVTAFSVLLLLLLSLLRLLRRRSCLLAPGKGSLAMGPSRGPGRSWAVWYRRPRGVALPCPPGDSQAEGPAAGYRPLSASSQSSLRSLVSAL
On to B4, for which the binding result in experiment [2] is “binds”.

B5: full-length untagged Krm2 (receptor, UniProt Q8K1S7 25-461)
chain: B4 chain
As for B5, the binding entry in experiment [3] is reported as “binds”.

B6: Kremen1 (Krm1), full length, Flag-tagged or HA-tagged (receptor, UniProt Q99N43 20-473, looked up)
chain: T1 sequence
notes: Kremen1 (Krm1), transmembrane receptor, full length; Two differently tagged copies of the same full-length protein (Flag-Krm1, HA-Krm1), each with ONE tag, written as one molecule for the self-association; In rows with truncated Krm1 or with Krm2 the Flag-tagged copy is the bait; Vector pCAG-IRES-EGFP or pCS2; also called Flag-Krm1; HA-Krm1; source: HEK293T, transfected, in lysate; not shown: …
Regarding B6, the binding entry in experiment [1], in experiment [2] and in experiment [3] was “binds” in each case.

Source of the values: PMC6494814, “Kremen1-induced cell death is regulated by homo- and heterodimerization” (Cell Death Discovery, 2019).
